Reference: PubChem BioAssay AID504764 (Drosophila RNAi Screening Center, 2011)

- Purpose: 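Genome-wide screen for regulators of Notch-driven gene expression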 (primary screen)
- Cells: Drosophila Kc167 cells
- Reagent: long dsRNA against Drosophila genes
- Timing: about 5 days (4 days dsRNA, then 24 h after transfection)
- Challenge: transfection of constitutively active membrane-tethered Notch lacking the extracellular domain, read 24 h later
- Detection: 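Light from a Notch-responsive E(spl)m3 luciferase reporter under active Notch, with control-promoter and no-Notch reporter wells to normalise; raw counts from paired wells a and b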
- Direction: induced reporter light, run 1, well a and induced reporter light, run 1, well b: higher = more light from the Notch target reporter with active Notch; control promoter light, run 1, well a and control promoter light, run 1, well b: higher = more light from the viral control promoter (cell number, transfection, viability); uninduced reporter light, run 1, well a: higher = more light from the Notch target reporter without active Notch
- Hit rule: 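Wells with low control signal or poorly matching duplicates excluded; duplicates averaged; per source plate, z beyond ±2 for induced/control log2 ratio or beyond ±1.8 for induced/uninduced marks a hit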
- Calls: active = modifier hit (raised or lowered Notch signal); inactive = not a hit
The deposit covers about 22,000 reagents; this is an unselected part of those with a known target gene and a result. Over the whole deposit, 403 (1.9%) got an active call. 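Unnormalised raw counts per well; ratio z-scores behind the hit calls and whether each hit raises or lowers signal are not deposited.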 Reagents against one gene are numbered here. Names joined by + are all predicted targets of the reagent. Not given: the amount of reagent.

CG10984 scored induced reporter light, run 1, well a = 1.23e5; induced reporter light, run 1, well b = 86525; control promoter light, run 1, well a = 66895; control promoter light, run 1, well b = 35720; uninduced reporter light, run 1, well a = 9355; inactive.
Silencing of CG11247 gave: induced reporter light, run 1, well a = 1.12e5; induced reporter light, run 1, well b = 1.31e5; control promoter light, run 1, well a = 84990; control promoter light, run 1, well b = 94470; uninduced reporter light, run 1, well a = 9830; inactive.
Lsd-1 showed induced reporter light, run 1, well a = 1.92e5; induced reporter light, run 1, well b = 1.77e5; control promoter light, run 1, well a = 2.70e5; control promoter light, run 1, well b = 2.62e5; uninduced reporter light, run 1, well a = 15020; inactive.
Knock-down of CG34040 resulted in: induced reporter light, run 1, well a = 70300; induced reporter light, run 1, well b = 70545; control promoter light, run 1, well a = 67525; control promoter light, run 1, well b = 73595; uninduced reporter light, run 1, well a = 8600; inactive.
Silencing of Pif1A + Pif1B #1 came out at: induced reporter light, run 1, well a = 22265; induced reporter light, run 1, well b = 24285; control promoter light, run 1, well a = 31050; control promoter light, run 1, well b = 18192; uninduced reporter light, run 1, well a = 1915; inactive.
Knock-down of Pif1A + Pif1B #2 came out at: induced reporter light, run 1, well a = 1.29e5; induced reporter light, run 1, well b = 95210; control promoter light, run 1, well a = 1.06e5; control promoter light, run 1, well b = 83580; uninduced reporter light, run 1, well a = 10370; inactive.
After knock-down of Pif1A + Pif1B #3, the record shows induced reporter light, run 1, well a = 1.04e5; induced reporter light, run 1, well b = 1.30e5; control promoter light, run 1, well a = 1.03e5; control promoter light, run 1, well b = 1.07e5; uninduced reporter light, run 1, well a = 8710; inactive.
After knock-down of CG31960 the results were induced reporter light, run 1, well a = 1.03e5; induced reporter light, run 1, well b = 86865; control promoter light, run 1, well a = 97605; control promoter light, run 1, well b = 89220; uninduced reporter light, run 1, well a = 6010; inactive.
Silencing of CG11095 resulted in: induced reporter light, run 1, well a = 1.94e5; induced reporter light, run 1, well b = 1.14e5; control promoter light, run 1, well a = 1.28e5; control promoter light, run 1, well b = 1.73e5; uninduced reporter light, run 1, well a = 6260; active.
Knock-down of CG3819 came out at: induced reporter light, run 1, well a = 72075; induced reporter light, run 1, well b = 73295; control promoter light, run 1, well a = 73890; control promoter light, run 1, well b = 63360; uninduced reporter light, run 1, well a = 5190; inactive.
For mib1 the deposit lists induced reporter light, run 1, well a = 1.69e5; induced reporter light, run 1, well b = 1.79e5; control promoter light, run 1, well a = 1.81e5; control promoter light, run 1, well b = 1.67e5; uninduced reporter light, run 1, well a = 6685; inactive.
CG42717 gave induced reporter light, run 1, well a = 2.35e5; induced reporter light, run 1, well b = 2.10e5; control promoter light, run 1, well a = 2.67e5; control promoter light, run 1, well b = 3.18e5; uninduced reporter light, run 1, well a = 22235; inactive.
Depletion of CG1077 resulted in: induced reporter light, run 1, well a = 97250; induced reporter light, run 1, well b = 1.15e5; control promoter light, run 1, well a = 1.01e5; control promoter light, run 1, well b = 92220; uninduced reporter light, run 1, well a = 7785; inactive.
Knock-down of CG15177 came out at: induced reporter light, run 1, well a = 66005; induced reporter light, run 1, well b = 1.02e5; control promoter light, run 1, well a = 81590; control promoter light, run 1, well b = 55430; uninduced reporter light, run 1, well a = 7745; inactive.
Silencing of ND-49L came out at: induced reporter light, run 1, well a = 1.41e5; induced reporter light, run 1, well b = 1.32e5; control promoter light, run 1, well a = 1.55e5; control promoter light, run 1, well b = 1.73e5; uninduced reporter light, run 1, well a = 11710; inactive.
After knock-down of CG14306 (retired record), the record shows induced reporter light, run 1, well a = 1.93e5; induced reporter light, run 1, well b = 1.67e5; control promoter light, run 1, well a = 1.78e5; control promoter light, run 1, well b = 1.89e5; uninduced reporter light, run 1, well a = 11065; inactive.
After knock-down of yip3, the record shows induced reporter light, run 1, well a = 1.86e5; induced reporter light, run 1, well b = 2.07e5; control promoter light, run 1, well a = 1.74e5; control promoter light, run 1, well b = 1.78e5; uninduced reporter light, run 1, well a = 15775; inactive.
After knock-down of Rev1, the screen gave induced reporter light, run 1, well a = 1.12e5; induced reporter light, run 1, well b = 94340; control promoter light, run 1, well a = 1.76e5; control promoter light, run 1, well b = 2.04e5; uninduced reporter light, run 1, well a = 7882; inactive.
Against Cpr67Fa1 the deposit lists induced reporter light, run 1, well a = 1.45e5; induced reporter light, run 1, well b = 1.34e5; control promoter light, run 1, well a = 2.04e5; control promoter light, run 1, well b = 1.65e5; uninduced reporter light, run 1, well a = 5105; inactive.
With knock-down of elB #1, the record shows induced reporter light, run 1, well a = 91870; induced reporter light, run 1, well b = 65135; control promoter light, run 1, well a = 69640; control promoter light, run 1, well b = 59805; uninduced reporter light, run 1, well a = 7185; inactive.
Against elB #2, the entry reads induced reporter light, run 1, well a = 1.39e5; induced reporter light, run 1, well b = 1.37e5; control promoter light, run 1, well a = 1.37e5; control promoter light, run 1, well b = 1.08e5; uninduced reporter light, run 1, well a = 10820; inactive.
Against CG9519, the entry reads induced reporter light, run 1, well a = 2.24e5; induced reporter light, run 1, well b = 2.19e5; control promoter light, run 1, well a = 2.62e5; control promoter light, run 1, well b = 2.63e5; uninduced reporter light, run 1, well a = 12450; inactive.
retn scored induced reporter light, run 1, well a = 1.79e5; induced reporter light, run 1, well b = 1.50e5; control promoter light, run 1, well a = 1.45e5; control promoter light, run 1, well b = 1.49e5; uninduced reporter light, run 1, well a = 9792; inactive.
Depletion of Chchd3 gave: induced reporter light, run 1, well a = 1260; induced reporter light, run 1, well b = 1535; control promoter light, run 1, well a = 3055; control promoter light, run 1, well b = 2755; uninduced reporter light, run 1, well a = 180; inactive.

No new results follow: entries from further up.
elB #2: induced reporter light, run 1, well a = 1.39e5; induced reporter light, run 1, well b = 1.37e5; control promoter light, run 1, well a = 1.37e5; control promoter light, run 1, well b = 1.08e5; uninduced reporter light, run 1, well a = 10820; Outcome = inactive
CG9519: induced reporter light, run 1, well a = 2.24e5; induced reporter light, run 1, well b = 2.19e5; control promoter light, run 1, well a = 2.62e5; control promoter light, run 1, well b = 2.63e5; uninduced reporter light, run 1, well a = 12450; Outcome = inactive
retn: induced reporter light, run 1, well a = 1.79e5; induced reporter light, run 1, well b = 1.50e5; control promoter light, run 1, well a = 1.45e5; control promoter light, run 1, well b = 1.49e5; uninduced reporter light, run 1, well a = 9792; Outcome = inactive
Chchd3: induced reporter light, run 1, well a = 1260; induced reporter light, run 1, well b = 1535; control promoter light, run 1, well a = 3055; control promoter light, run 1, well b = 2755; uninduced reporter light, run 1, well a = 180; Outcome = inactive
